Values from PubChem BioAssay AID1508597 (Cure First, 2020).
Shown is an unselected part of about 2,100 reagents tested. 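Calls flag viability under 80% in either arm, not effects specific to rucaparib; the reference for percent is not stated.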 Unmarked entries are inactive. Not given: the 100% reference.

- Purpose: 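Genes whose silencing sensitises or protects ovarian cancer cells against rucaparib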 (primary screen)
- Cells: human ovarian carcinoma lines grown from tumours: OCI-P5x (papillary serous) and OCI-C5x (clear cell)
- Reagents: siRNA pool against human genes, 1.25 pmol siRNA per well
- Time to read-out: 72 h or 96 h, depending on the cell culture
- Conditions: rucaparib 20 µM (about IC30) or vehicle, present until read-out
- Detection: 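Luminescent ATP-based viability assay read 72 or 96 h after transfection, depending on culture, given as normalised percent viability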
- Scale: viability, normalised: higher = more viable cells remaining
- Call rule: 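Active when normalised viability falls below 80 percent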
- Calls: active = viability under 80%; inactive = viability 80% or more

no.	Gene	rucaparib or vehicle	cell line	technical replicate	viability, normalised (%)
1	PNCK (pregnancy up-regulated nonubiquitous CaM kinase)	Rucaparib	OCI-C5x (clear cell)	1	55.2 (active)
2	PNCK (pregnancy up-regulated nonubiquitous CaM kinase)	Rucaparib	OCI-C5x (clear cell)	2	53 (active)
3	PNCK (pregnancy up-regulated nonubiquitous CaM kinase)	Rucaparib	OCI-C5x (clear cell)	3	58.7 (active)
4	PNCK (pregnancy up-regulated nonubiquitous CaM kinase)	Rucaparib	OCI-P5x (serous)	1	98.9
5	PNCK (pregnancy up-regulated nonubiquitous CaM kinase)	Rucaparib	OCI-P5x (serous)	2	97
6	PNCK (pregnancy up-regulated nonubiquitous CaM kinase)	Rucaparib	OCI-P5x (serous)	3	79.9 (active)
7	PNCK (pregnancy up-regulated nonubiquitous CaM kinase)	Vehicle	OCI-C5x (clear cell)	1	62.1 (active)
8	PNCK (pregnancy up-regulated nonubiquitous CaM kinase)	Vehicle	OCI-C5x (clear cell)	2	63 (active)
9	PNCK (pregnancy up-regulated nonubiquitous CaM kinase)	Vehicle	OCI-C5x (clear cell)	3	46.7 (active)
10	PNCK (pregnancy up-regulated nonubiquitous CaM kinase)	Vehicle	OCI-P5x (serous)	1	96.4
11	PNCK (pregnancy up-regulated nonubiquitous CaM kinase)	Vehicle	OCI-P5x (serous)	2	62.2 (active)
12	PNCK (pregnancy up-regulated nonubiquitous CaM kinase)	Vehicle	OCI-P5x (serous)	3	77.3 (active)

Next part (2 carried over from the part before).
no.	Gene	rucaparib or vehicle	cell line	technical replicate	viability, normalised (%)
11	PNCK (pregnancy up-regulated nonubiquitous CaM kinase)	Vehicle	OCI-P5x (serous)	2	62.2 (active)
12	PNCK (pregnancy up-regulated nonubiquitous CaM kinase)	Vehicle	OCI-P5x (serous)	3	77.3 (active)
13	USH2A (usherin)	Rucaparib	OCI-C5x (clear cell)	1	80.9
14	USH2A (usherin)	Rucaparib	OCI-C5x (clear cell)	2	70.6 (active)
15	USH2A (usherin)	Rucaparib	OCI-C5x (clear cell)	3	75 (active)
16	USH2A (usherin)	Rucaparib	OCI-P5x (serous)	1	52 (active)
17	USH2A (usherin)	Rucaparib	OCI-P5x (serous)	2	52.3 (active)
18	USH2A (usherin)	Rucaparib	OCI-P5x (serous)	3	79.3 (active)
19	USH2A (usherin)	Vehicle	OCI-C5x (clear cell)	1	84.4
20	USH2A (usherin)	Vehicle	OCI-C5x (clear cell)	2	66.9 (active)
21	USH2A (usherin)	Vehicle	OCI-C5x (clear cell)	3	66.2 (active)
22	USH2A (usherin)	Vehicle	OCI-P5x (serous)	1	54.9 (active)
23	USH2A (usherin)	Vehicle	OCI-P5x (serous)	2	54.9 (active)
24	USH2A (usherin)	Vehicle	OCI-P5x (serous)	3	72.4 (active)
